Data set [1] concerns primary rat brain endothelial cell-based BBB model (EPA).
Data set [2] is described as follows: in vitro. Conditions: human, Caco-2.
A short description of data set [3]: in vitro. The following applies: Wistar, rat.

On to `COc1cc2c(cc1OC)C(=O)C(CC1CCN(Cc3ccccc3)CC1)C2` (stereo not drawn) [donepezil], for which the “Penetration in the presence of choline and carnitine” value in data set [1] is recorded as “inhibited significantly”. In addition, the efflux ratio in “in vitro [2]” came to 1.78. The apparent permeability (Papp) in the data set “in vitro [3]” was 630 ± 130 nm/s.

The record behind these values is PMC5972182, “Comparison of a Rat Primary Cell-Based Blood-Brain Barrier Model With Epithelial and Brain Endothelial Cell Lines: Gene Expression and Drug Transport” (Frontiers in Molecular Neuroscience, 2018).
